Data reported in patent US20250145665A1, “MACROCYCLIC PEPTIDES USEFUL AS MODULATORS OF TNF ALPHA” (Bristol-Myers Squibb Company, priority 2023, published 2025).
Some results were stated once for a whole list of compounds, not compound by compound. Starred links: 1 amine or outer side, 2 acyl side, 3 side chain; linkers in the order of their positions; H or OH if unused. Positions of bridges follow the written chain, without caps; N, C: chain ends. Non-standard residues stand in square brackets, D forms with d. Residues, ends and D or L forms follow the SMILES beside them. *: point of attachment. Bip(4'-(3-HOOC-benzamido)) = N[C@@H](Cc1ccc(-c2ccc(NC(=O)c3cccc(C(=O)O)c3)cc2)cc1)C(=O)O; X74 = Cn1nc(C(=O)Nc2ccc(-c3ccc(C[C@H](N[*:1])C(=O)[*:2])cc3)cc2)c2cccnc21; X9 = Cn1nc(C(=O)Nc2cccc(-c3ccc(C[C@H](N[*:1])C(=O)[*:2])cc3)c2)c2cccnc21; X47 = O=C(Nc1ccc(-c2ccc(C[C@H](N[*:1])C(=O)[*:2])cc2)cc1)c1coc2ccccc12; Bip(4'-NH) = O=C([C@H](Cc1ccc(-c2ccc(N[*:3])cc2)cc1)N[*:1])[*:2]; Bip(4'-COOH) = N[C@@H](Cc1ccc(-c2ccc(C(=O)O)cc2)cc1)C(=O)O; Ala(morpholin-4-yl) = N[C@@H](CN1CCOCC1)C(=O)O; Benzoyl(3-OCH2COOH) = O=C(O)COc1cccc(C(=O)*)c1; Phe(3-CONH2) = NC(=O)c1cccc(C[C@H](N)C(=O)O)c1; Benzoyl(3-Ph) = O=C(c1cccc(-c2ccccc2)c1)*; Bip = N[C@@H](Cc1ccc(-c2ccccc2)cc1)C(=O)O; Tiq1c(1S) = O=C(O)[C@H]1NCCc2ccccc21; X3 = O=C(O)c1cccc(Oc2ccccc2C(=O)*)c1; 2Pal = N[C@@H](Cc1ccccn1)C(=O)O; Tic = O=C(O)[C@@H]1Cc2ccccc2CN1; Cha = N[C@@H](CC1CCCCC1)C(=O)O; X20 = O=C(c1csc(-c2ccncc2)n1)*; Tle = CC(C)(C)[C@H](N)C(=O)O; Aze = O=C(O)[C@@H]1CCN1; Sar = CNCC(=O)O

Protein sequences, listed by entry. Tags and fused reporters are not part of them. Residues count along the entry.
UniProt P01375, 77-233 limits assumed: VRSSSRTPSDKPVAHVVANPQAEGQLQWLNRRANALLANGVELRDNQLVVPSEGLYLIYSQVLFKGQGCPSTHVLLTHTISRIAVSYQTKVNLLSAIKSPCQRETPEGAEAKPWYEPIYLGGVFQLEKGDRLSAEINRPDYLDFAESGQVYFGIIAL

These compounds were tested against TNFα (Homo sapiens, UniProt P01375) (assay: TNF-Induced HEK-Blue Assay). Conditions: read-out: IC50 values measured in the TNF induced HEK-Blue assay; summary statement for all examples.
Assay type: cell-based

IC50, ≤ 25 µM:
CC[C@H](C)[C@@H]1NC(=O)[C@@H](CCCNC(=N)N)NC(=O)[C@H](CC(=O)O)NC(=O)[C@H](Cc2cnc[nH]2)NC(=O)CN(C)C(=O)[C@H](Cc2ccc(-c3ccc(NC(=O)c4cccc(OCC(=O)O)c4)cc3)cc2)NC(=O)[C@H](Cc2ccc(-c3ccc(C(=O)O)cc3)cc2)NC(=O)[C@H](CC2CCCCC2)NC(=O)CSC[C@@H](C(=O)NCC(N)=O)NC(=O)[C@H](CC(C)C)NC(=O)[C@H](Cc2cnc[nH]2)NC(=O)[C@H](C(C)C)NC(=O)[C@@H]2c3ccccc3CCN2C1=O [Example 375] ({CH2CO}-[Cha][Bip(4'-COOH)][Bip(4'-NH)](Benzoyl(3-OCH2COOH))[Sar]HD[dR]I[Tiq1c(1S)]VHLCG-NH2; thioether N-13)

Same assay, conditions: summary statement for all examples; read-out: IC50 values measured in the TNF induced HEK-Blue assay

IC50, ≤ 25 µM:
CC(C)C[C@@H]1NC(=O)[C@H](CCCNC(=N)N)NC(=O)[C@H](C(C)C)NC(=O)[C@@H]2CCCN2C(=O)[C@H](C(C)C)NC(=O)[C@@H](CCCNC(=N)N)NC(=O)[C@H](CC(=O)O)NC(=O)[C@@H]2CCCN2C(=O)CN(C)C(=O)[C@H](Cc2ccc(-c3cccc(NC(=O)c4nn(C)c5ncccc45)c3)cc2)NC(=O)[C@H](Cc2ccc(-c3ccccc3)cc2)NC(=O)[C@H](CN2CCOCC2)NC(=O)CSC[C@@H](C(=O)NCC(N)=O)NC1=O [Example 345] ({CH2CO}-[Ala(morpholin-4-yl)][Bip][X9][Sar]PD[dR]VPVRLCG-NH2; thioether N-13)
CC(C)C[C@@H]1NC(=O)[C@H](CCCNC(=N)N)NC(=O)[C@H](C(C)C)NC(=O)[C@@H]2CCCN2C(=O)[C@H](C(C)C)NC(=O)[C@@H](CCCNC(=N)N)NC(=O)[C@H](CC(=O)O)NC(=O)[C@@H]2CCCN2C(=O)CN(C)C(=O)[C@H](Cc2ccc(-c3ccc(NC(=O)c4coc5ccccc45)cc3)cc2)NC(=O)[C@H](Cc2ccc(-c3ccccc3)cc2)NC(=O)[C@H](CN2CCOCC2)NC(=O)CSC[C@@H](C(=O)NCC(N)=O)NC1=O [Example 346] ({CH2CO}-[Ala(morpholin-4-yl)][Bip][X47][Sar]PD[dR]VPVRLCG-NH2; thioether N-13)
CC(C)C[C@@H]1NC(=O)[C@H](CCCNC(=N)N)NC(=O)[C@H](C(C)C)NC(=O)[C@@H]2CCCN2C(=O)[C@H](C(C)C)NC(=O)[C@@H](CCCNC(=N)N)NC(=O)[C@H](CC(=O)O)NC(=O)[C@@H]2CCCN2C(=O)CN(C)C(=O)[C@H](Cc2ccc(-c3ccc(NC(=O)c4nn(C)c5ncccc45)cc3)cc2)NC(=O)[C@H](Cc2ccc(-c3ccccc3)cc2)NC(=O)[C@H](CN2CCOCC2)NC(=O)CSC[C@@H](C(=O)NCC(N)=O)NC1=O [Example 347] ({CH2CO}-[Ala(morpholin-4-yl)][Bip][X74][Sar]PD[dR]VPVRLCG-NH2; thioether N-13)
CC[C@H](C)[C@@H]1NC(=O)[C@@H](CCCNC(=N)N)NC(=O)[C@H](CC(=O)O)NC(=O)[C@H](Cc2cnc[nH]2)NC(=O)CN(C)C(=O)[C@H](Cc2ccc(-c3ccc(NC(=O)c4cccc(-c5ccccc5)c4)cc3)cc2)NC(=O)[C@H](Cc2ccc(-c3ccccc3)cc2)NC(=O)[C@H](CC2CCCCC2)NC(=O)CSC[C@@H](C(=O)NCC(N)=O)NC(=O)[C@H](CC(C)C)NC(=O)[C@H](Cc2cnc[nH]2)NC(=O)[C@H](C(C)C)NC(=O)[C@@H]2CCCN2C1=O [Example 349] ({CH2CO}-[Cha][Bip][Bip(4'-NH)](Benzoyl(3-Ph))[Sar]HD[dR]IPVHLCG-NH2; thioether N-13)
CC[C@H](C)[C@@H]1NC(=O)[C@@H]2CCCN2C(=O)[C@H]([C@@H](C)CC)NC(=O)[C@@H](CCCNC(=N)N)NC(=O)[C@H](CC(=O)O)NC(=O)[C@H](Cc2ccccc2)NC(=O)CN(C)C(=O)[C@H](Cc2ccc(-c3ccc(NC(=O)c4cccc(C(=O)O)c4)cc3)cc2)NC(=O)[C@H](Cc2ccc(-c3ccc(C(=O)O)cc3)cc2)NC(=O)[C@H](C(C)(C)C)NC(=O)CSC[C@@H](C(=O)NCC(N)=O)NC(=O)[C@H](CC(C)C)NC(=O)[C@H](Cc2cnc[nH]2)NC1=O [Example 351] ({CH2CO}-[Tle][Bip(4'-COOH)][Bip(4'-(3-HOOC-benzamido))][Sar]FD[dR]IPIHLCG-NH2; thioether N-13)
CC[C@H](C)[C@@H]1NC(=O)[C@@H]2CCCN2C(=O)[C@H]([C@@H](C)CC)NC(=O)[C@@H](CCCNC(=N)N)NC(=O)[C@H](CC(=O)O)NC(=O)[C@H](Cc2ccccc2)NC(=O)CN(C)C(=O)[C@H](Cc2ccc(-c3ccc(NC(=O)c4cccc(OCC(=O)O)c4)cc3)cc2)NC(=O)[C@H](Cc2ccc(-c3ccc(C(=O)O)cc3)cc2)NC(=O)[C@H](C(C)(C)C)NC(=O)CSC[C@@H](C(=O)NCC(N)=O)NC(=O)[C@H](CC(C)C)NC(=O)[C@H](Cc2cnc[nH]2)NC1=O [Example 352] ({CH2CO}-[Tle][Bip(4'-COOH)][Bip(4'-NH)](Benzoyl(3-OCH2COOH))[Sar]FD[dR]IPIHLCG-NH2; thioether N-13)
CC[C@H](C)[C@@H]1NC(=O)[C@@H]2CCCN2C(=O)[C@H]([C@@H](C)CC)NC(=O)[C@@H](CCCNC(=N)N)NC(=O)[C@H](CC(=O)O)NC(=O)[C@H](Cc2ccccc2)NC(=O)CN(C)C(=O)[C@H](Cc2ccc(-c3ccc(NC(=O)c4csc(-c5ccncc5)n4)cc3)cc2)NC(=O)[C@H](Cc2ccc(-c3ccc(C(=O)O)cc3)cc2)NC(=O)[C@H](C(C)(C)C)NC(=O)CSC[C@@H](C(=O)NCC(N)=O)NC(=O)[C@H](CC(C)C)NC(=O)[C@H](Cc2cnc[nH]2)NC1=O [Example 353] ({CH2CO}-[Tle][Bip(4'-COOH)][Bip(4'-NH)](X20)[Sar]FD[dR]IPIHLCG-NH2; thioether N-13)
CC[C@H](C)[C@@H]1NC(=O)[C@@H](CCCNC(=N)N)NC(=O)[C@H](CC(=O)O)NC(=O)[C@H](Cc2cnc[nH]2)NC(=O)CN(C)C(=O)[C@H](Cc2ccc(-c3ccc(NC(=O)c4ccccc4Oc4cccc(C(=O)O)c4)cc3)cc2)NC(=O)[C@H](Cc2ccc(-c3ccccc3)cc2)NC(=O)[C@H](CC2CCCCC2)NC(=O)CSC[C@@H](C(=O)NCC(N)=O)NC(=O)[C@H](CC(C)C)NC(=O)[C@H](Cc2cnc[nH]2)NC(=O)[C@H](C(C)C)NC(=O)[C@@H]2CCCN2C1=O [Example 354] ({CH2CO}-[Cha][Bip][Bip(4'-NH)](X3)[Sar]HD[dR]IPVHLCG-NH2; thioether N-13)
CC[C@H](C)[C@@H]1NC(=O)[C@@H]2CCCN2C(=O)[C@H]([C@@H](C)CC)NC(=O)[C@@H](CCCNC(=N)N)NC(=O)[C@H](CC(=O)O)NC(=O)[C@H](Cc2ccccn2)NC(=O)CN(C)C(=O)[C@H](Cc2ccc(-c3ccc(NC(=O)c4cccc(C(=O)O)c4)cc3)cc2)NC(=O)[C@H](Cc2ccc(-c3ccccc3)cc2)NC(=O)[C@H](C(C)(C)C)NC(=O)CSC[C@@H](C(=O)NCC(N)=O)NC(=O)[C@H](CC(C)C)NC(=O)[C@H](Cc2cccc(C(N)=O)c2)NC1=O [Example 368] ({CH2CO}-[Tle][Bip][Bip(4'-(3-HOOC-benzamido))][Sar][2Pal]D[dR]IPI[Phe(3-CONH2)]LCG-NH2; thioether N-13)
CC(C)C[C@@H]1NC(=O)[C@H](Cc2ccc(O)cc2)NC(=O)[C@H](C(C)C)NC(=O)[C@@H]2Cc3ccccc3CN2C(=O)[C@H](C(C)C)NC(=O)[C@@H](CCCNC(=N)N)NC(=O)[C@H](CC(=O)O)NC(=O)[C@@H]2CCCN2C(=O)CN(C)C(=O)[C@H](Cc2ccc(-c3ccc(NC(=O)c4cccc(OCC(=O)O)c4)cc3)cc2)NC(=O)[C@H](Cc2ccc(-c3ccc(C(=O)O)cc3)cc2)NC(=O)[C@H](CC2CCCCC2)NC(=O)CSC[C@@H](C(=O)NCC(N)=O)NC1=O [Example 369] ({CH2CO}-[Cha][Bip(4'-COOH)][Bip(4'-NH)](Benzoyl(3-OCH2COOH))[Sar]PD[dR]V[Tic]VYLCG-NH2; thioether N-13)
CC[C@H](C)[C@@H]1NC(=O)[C@@H](CCCNC(=N)N)NC(=O)[C@H](CC(=O)O)NC(=O)[C@H](Cc2cnc[nH]2)NC(=O)CN(C)C(=O)[C@H](Cc2ccc(-c3ccc(NC(=O)c4cccc(C(=O)O)c4)cc3)cc2)NC(=O)[C@H](Cc2ccc(-c3ccc(C(=O)O)cc3)cc2)NC(=O)[C@H](CC2CCCCC2)NC(=O)CSC[C@@H](C(=O)NCC(N)=O)NC(=O)[C@H](CC(C)C)NC(=O)[C@H](Cc2cnc[nH]2)NC(=O)[C@H](C(C)C)NC(=O)[C@@H]2Cc3ccccc3CN2C1=O [Example 371] ({CH2CO}-[Cha][Bip(4'-COOH)][Bip(4'-(3-HOOC-benzamido))][Sar]HD[dR]I[Tic]VHLCG-NH2; thioether N-13)
CC[C@H](C)[C@@H]1NC(=O)[C@@H](CCCNC(=N)N)NC(=O)[C@H](CC(=O)O)NC(=O)[C@H](Cc2cnc[nH]2)NC(=O)CN(C)C(=O)[C@H](Cc2ccc(-c3ccc(NC(=O)c4cccc(OCC(=O)O)c4)cc3)cc2)NC(=O)[C@H](Cc2ccc(-c3ccc(C(=O)O)cc3)cc2)NC(=O)[C@H](CC2CCCCC2)NC(=O)CSC[C@@H](C(=O)NCC(N)=O)NC(=O)[C@H](CC(C)C)NC(=O)[C@H](Cc2cnc[nH]2)NC(=O)[C@H](C(C)C)NC(=O)[C@@H]2Cc3ccccc3CN2C1=O [Example 372] ({CH2CO}-[Cha][Bip(4'-COOH)][Bip(4'-NH)](Benzoyl(3-OCH2COOH))[Sar]HD[dR]I[Tic]VHLCG-NH2; thioether N-13)
CC[C@H](C)[C@@H]1NC(=O)[C@@H](CCCNC(=N)N)NC(=O)[C@H](CC(=O)O)NC(=O)[C@H](Cc2cnc[nH]2)NC(=O)CN(C)C(=O)[C@H](Cc2ccc(-c3ccc(NC(=O)c4cccc(C(=O)O)c4)cc3)cc2)NC(=O)[C@H](Cc2ccc(-c3ccc(C(=O)O)cc3)cc2)NC(=O)[C@H](CC2CCCCC2)NC(=O)CSC[C@@H](C(=O)NCC(N)=O)NC(=O)[C@H](CC(C)C)NC(=O)[C@H](Cc2cnc[nH]2)NC(=O)[C@H](C(C)C)NC(=O)[C@@H]2c3ccccc3CCN2C1=O [Example 374] ({CH2CO}-[Cha][Bip(4'-COOH)][Bip(4'-(3-HOOC-benzamido))][Sar]HD[dR]I[Tiq1c(1S)]VHLCG-NH2; thioether N-13)
CC[C@H](C)[C@@H]1NC(=O)[C@@H]2CCN2C(=O)[C@H]([C@@H](C)CC)NC(=O)[C@@H](CCCNC(=N)N)NC(=O)[C@H](CC(=O)O)NC(=O)[C@H](Cc2ccc(O)cc2)NC(=O)CN(C)C(=O)[C@H](Cc2ccc(-c3ccc(NC(=O)c4cccc(C(=O)O)c4)cc3)cc2)NC(=O)[C@H](Cc2ccc(-c3ccccc3)cc2)NC(=O)[C@H](C(C)(C)C)NC(=O)CSC[C@@H](C(=O)NCC(N)=O)NC(=O)[C@H](CC(C)C)NC(=O)[C@H](Cc2ccc(O)cc2)NC1=O [Example 377] ({CH2CO}-[Tle][Bip][Bip(4'-(3-HOOC-benzamido))][Sar]YD[dR]I[Aze]IYLCG-NH2; thioether N-13)
